# Measurements as given in publication PMC8732282.
# Chains of the proteins cited; added tags and fusions are not shown. Residues count along the entry.
# UniProt P53350: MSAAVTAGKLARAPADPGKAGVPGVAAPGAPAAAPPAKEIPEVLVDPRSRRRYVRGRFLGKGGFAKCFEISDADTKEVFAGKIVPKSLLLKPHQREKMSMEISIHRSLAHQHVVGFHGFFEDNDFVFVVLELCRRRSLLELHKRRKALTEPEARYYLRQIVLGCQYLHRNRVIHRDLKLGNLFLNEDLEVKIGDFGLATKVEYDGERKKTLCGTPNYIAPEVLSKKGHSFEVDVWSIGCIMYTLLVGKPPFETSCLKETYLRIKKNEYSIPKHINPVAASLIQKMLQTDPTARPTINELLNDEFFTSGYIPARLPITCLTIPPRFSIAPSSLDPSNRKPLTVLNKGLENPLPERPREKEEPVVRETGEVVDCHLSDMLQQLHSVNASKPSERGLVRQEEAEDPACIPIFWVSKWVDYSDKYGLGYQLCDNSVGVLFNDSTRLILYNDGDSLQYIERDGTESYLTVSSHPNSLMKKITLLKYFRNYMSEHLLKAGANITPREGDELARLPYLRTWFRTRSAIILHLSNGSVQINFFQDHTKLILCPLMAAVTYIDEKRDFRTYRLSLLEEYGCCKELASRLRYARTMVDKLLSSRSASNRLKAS
# UniProt Q05397: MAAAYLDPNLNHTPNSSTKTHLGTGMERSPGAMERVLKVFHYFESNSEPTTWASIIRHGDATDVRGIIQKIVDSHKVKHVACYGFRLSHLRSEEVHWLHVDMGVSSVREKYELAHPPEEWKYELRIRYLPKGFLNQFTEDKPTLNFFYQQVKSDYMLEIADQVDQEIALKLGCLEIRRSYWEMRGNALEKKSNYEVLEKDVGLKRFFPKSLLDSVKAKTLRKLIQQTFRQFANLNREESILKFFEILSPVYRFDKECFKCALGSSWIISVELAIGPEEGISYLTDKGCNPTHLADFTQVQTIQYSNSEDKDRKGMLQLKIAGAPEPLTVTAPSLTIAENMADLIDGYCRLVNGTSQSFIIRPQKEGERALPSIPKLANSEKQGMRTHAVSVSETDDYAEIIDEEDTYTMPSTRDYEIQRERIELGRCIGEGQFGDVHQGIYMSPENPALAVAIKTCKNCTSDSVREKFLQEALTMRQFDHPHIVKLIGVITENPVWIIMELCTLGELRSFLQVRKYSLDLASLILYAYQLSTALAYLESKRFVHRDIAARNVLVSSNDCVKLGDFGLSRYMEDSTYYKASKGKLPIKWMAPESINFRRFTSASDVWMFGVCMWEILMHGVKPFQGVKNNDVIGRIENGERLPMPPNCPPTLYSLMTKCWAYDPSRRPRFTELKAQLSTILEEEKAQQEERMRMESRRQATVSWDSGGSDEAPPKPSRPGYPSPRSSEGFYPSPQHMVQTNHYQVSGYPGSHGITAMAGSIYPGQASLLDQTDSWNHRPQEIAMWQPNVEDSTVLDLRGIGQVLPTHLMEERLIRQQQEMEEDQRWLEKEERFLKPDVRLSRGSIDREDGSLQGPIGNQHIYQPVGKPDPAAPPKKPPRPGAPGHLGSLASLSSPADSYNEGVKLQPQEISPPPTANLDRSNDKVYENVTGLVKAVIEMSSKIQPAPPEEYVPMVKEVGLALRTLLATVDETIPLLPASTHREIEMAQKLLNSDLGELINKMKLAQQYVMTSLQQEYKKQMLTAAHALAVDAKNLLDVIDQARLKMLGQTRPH
# UniProt P40763: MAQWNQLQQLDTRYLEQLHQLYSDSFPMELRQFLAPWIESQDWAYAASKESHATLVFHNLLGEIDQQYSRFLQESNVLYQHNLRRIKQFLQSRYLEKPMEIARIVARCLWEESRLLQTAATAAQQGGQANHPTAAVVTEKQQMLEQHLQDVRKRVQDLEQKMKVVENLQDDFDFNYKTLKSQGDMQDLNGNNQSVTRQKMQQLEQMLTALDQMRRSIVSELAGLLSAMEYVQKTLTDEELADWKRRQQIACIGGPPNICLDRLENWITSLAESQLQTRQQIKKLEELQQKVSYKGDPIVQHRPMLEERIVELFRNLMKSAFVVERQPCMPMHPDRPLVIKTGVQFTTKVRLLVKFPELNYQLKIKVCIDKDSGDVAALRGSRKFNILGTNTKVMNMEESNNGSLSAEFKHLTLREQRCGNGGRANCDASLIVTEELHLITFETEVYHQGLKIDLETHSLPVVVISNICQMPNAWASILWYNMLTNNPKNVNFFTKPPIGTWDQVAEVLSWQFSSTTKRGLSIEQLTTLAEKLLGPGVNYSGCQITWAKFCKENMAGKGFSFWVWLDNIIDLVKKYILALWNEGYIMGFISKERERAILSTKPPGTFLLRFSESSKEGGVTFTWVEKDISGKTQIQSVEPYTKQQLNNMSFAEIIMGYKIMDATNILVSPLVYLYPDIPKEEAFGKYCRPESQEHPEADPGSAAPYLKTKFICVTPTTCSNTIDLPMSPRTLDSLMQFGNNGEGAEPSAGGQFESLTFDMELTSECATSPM
# UniProt Q8N122: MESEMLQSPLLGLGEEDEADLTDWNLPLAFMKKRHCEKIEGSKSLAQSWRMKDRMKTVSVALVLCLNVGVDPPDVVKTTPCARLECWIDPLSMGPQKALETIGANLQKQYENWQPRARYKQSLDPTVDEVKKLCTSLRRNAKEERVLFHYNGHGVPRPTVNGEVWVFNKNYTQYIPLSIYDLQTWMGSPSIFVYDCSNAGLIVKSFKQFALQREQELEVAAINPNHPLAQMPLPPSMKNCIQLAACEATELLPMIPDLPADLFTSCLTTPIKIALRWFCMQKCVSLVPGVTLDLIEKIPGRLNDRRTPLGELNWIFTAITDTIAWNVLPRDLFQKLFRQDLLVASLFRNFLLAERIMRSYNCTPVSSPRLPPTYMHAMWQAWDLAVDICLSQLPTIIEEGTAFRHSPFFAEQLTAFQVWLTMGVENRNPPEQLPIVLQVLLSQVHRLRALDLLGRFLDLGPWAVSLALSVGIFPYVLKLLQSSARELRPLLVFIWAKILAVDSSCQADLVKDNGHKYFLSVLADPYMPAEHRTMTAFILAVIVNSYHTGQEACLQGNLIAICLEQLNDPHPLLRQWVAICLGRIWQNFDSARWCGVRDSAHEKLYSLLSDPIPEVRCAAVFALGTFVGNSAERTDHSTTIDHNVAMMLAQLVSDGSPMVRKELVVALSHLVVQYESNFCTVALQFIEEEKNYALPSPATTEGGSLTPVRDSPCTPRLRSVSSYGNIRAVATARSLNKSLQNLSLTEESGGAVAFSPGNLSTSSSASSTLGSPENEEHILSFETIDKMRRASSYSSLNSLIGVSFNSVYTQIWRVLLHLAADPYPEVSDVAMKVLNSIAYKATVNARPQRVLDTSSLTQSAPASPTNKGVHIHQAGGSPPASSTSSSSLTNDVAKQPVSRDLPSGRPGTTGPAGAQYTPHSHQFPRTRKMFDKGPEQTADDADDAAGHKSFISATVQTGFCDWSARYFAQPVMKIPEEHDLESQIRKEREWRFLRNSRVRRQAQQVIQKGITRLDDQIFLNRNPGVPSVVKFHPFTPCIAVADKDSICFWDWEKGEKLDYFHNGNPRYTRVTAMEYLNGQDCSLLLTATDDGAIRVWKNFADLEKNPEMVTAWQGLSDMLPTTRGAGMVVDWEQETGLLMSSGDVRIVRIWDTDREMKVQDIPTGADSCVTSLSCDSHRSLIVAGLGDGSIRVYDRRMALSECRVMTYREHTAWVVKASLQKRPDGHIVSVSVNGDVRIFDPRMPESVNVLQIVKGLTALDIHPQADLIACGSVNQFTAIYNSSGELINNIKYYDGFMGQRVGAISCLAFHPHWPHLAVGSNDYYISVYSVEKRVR
# UniProt P08581, residues 25-1390: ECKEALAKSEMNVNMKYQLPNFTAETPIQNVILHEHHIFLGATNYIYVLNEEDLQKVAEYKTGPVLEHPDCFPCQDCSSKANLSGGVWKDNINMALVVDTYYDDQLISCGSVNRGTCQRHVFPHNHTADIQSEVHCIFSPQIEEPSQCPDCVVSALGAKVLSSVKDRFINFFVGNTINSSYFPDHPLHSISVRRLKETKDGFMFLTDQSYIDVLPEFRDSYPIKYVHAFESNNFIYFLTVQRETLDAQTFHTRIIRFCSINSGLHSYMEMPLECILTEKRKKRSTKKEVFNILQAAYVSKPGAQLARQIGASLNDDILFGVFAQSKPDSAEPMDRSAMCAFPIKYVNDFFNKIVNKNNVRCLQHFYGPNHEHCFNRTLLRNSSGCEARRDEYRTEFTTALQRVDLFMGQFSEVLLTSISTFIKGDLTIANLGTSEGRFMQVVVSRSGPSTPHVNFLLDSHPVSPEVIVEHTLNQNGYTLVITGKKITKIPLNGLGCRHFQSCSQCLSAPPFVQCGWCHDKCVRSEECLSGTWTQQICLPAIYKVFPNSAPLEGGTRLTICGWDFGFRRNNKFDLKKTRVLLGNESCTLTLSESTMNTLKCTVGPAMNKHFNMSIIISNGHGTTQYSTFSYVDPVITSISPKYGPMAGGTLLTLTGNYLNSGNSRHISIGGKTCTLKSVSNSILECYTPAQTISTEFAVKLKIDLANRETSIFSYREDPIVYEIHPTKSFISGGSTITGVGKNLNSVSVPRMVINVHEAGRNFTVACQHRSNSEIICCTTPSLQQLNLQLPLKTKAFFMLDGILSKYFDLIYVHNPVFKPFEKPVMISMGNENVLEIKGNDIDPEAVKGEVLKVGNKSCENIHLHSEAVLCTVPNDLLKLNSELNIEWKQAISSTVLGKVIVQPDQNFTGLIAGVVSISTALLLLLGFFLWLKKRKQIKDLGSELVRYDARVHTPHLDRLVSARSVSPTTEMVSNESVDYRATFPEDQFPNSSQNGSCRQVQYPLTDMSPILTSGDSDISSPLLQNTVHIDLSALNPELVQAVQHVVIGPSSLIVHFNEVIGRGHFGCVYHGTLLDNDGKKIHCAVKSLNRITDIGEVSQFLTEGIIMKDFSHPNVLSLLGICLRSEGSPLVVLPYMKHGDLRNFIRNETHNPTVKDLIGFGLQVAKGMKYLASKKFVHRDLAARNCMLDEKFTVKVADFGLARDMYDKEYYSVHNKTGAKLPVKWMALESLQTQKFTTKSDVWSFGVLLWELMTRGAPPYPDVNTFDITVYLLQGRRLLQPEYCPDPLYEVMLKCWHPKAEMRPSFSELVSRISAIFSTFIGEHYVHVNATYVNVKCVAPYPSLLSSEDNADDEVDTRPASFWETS
# Results are given in words; binding and its absence hold for the method and conditions named. In cells and extracts the contact can be indirect. Some entries that bind do so weakly or less than the wild type.
# Biological target: polo-like kinase-1 (PLK1) (human (endogenous in HCT116 and SW480)) (UniProt P53350)
# Assay: co-IP; lysates of HCT116 cells expressing GRB7 or vector control, immunoprecipitated with PLK1 antibody or immunoglobulin G control, blotted with the indicated antibodies
row,binding,Substance
1,binds,FAK (from UniProt Q05397 1-1052) (enzyme)
2,binds,FLAG-tagged GRB7 (growth factor receptor-bound protein 7) (from UniProt Q14451 1-532)
3,binds,STAT3 (from UniProt P40763 1-770)
4,binds,regulatory associated protein of mTOR complex 1 (RPTOR) (from UniProt Q8N122 1-1335)

# Biological target: FLAG-tagged GRB7 (growth factor receptor-bound protein 7) (UniProt Q14451)
# Assay: co-IP; lysates of HCT116 (and SW480) cells expressing FLAG-GRB7 or vector control, immunoprecipitated with Flag antibody or immunoglobulin G control, blotted with the indicated antibodies
row,Substance,binding
1,MET (from UniProt P08581 25-1390) (receptor),binds
2,phosphorylated PLK1 (from UniProt P53350 1-603) (enzyme),binds
3,polo-like kinase-1 (PLK1) (from UniProt P53350 1-603) (enzyme),binds

# Results, then the substance that gave them:
row,binding,Substance
1,binds,EGFR (from UniProt P00533 25-1210) (receptor)
2,binds,regulatory associated protein of mTOR complex 1 (RPTOR) (from UniProt Q8N122 1-1335)
